Assay results as given in patent US8815935B2, “Inhibitors of protein prenyltransferases” (The Regents of the University of California, priority 2008, dated 2014).
Where two headings read alike, the source gives them in different places. Some of these results come from one statement about several compounds together.

Protein sequences, listed by entry. Tags and fused reporters are not part of them.
UniProt P53610, whole entry: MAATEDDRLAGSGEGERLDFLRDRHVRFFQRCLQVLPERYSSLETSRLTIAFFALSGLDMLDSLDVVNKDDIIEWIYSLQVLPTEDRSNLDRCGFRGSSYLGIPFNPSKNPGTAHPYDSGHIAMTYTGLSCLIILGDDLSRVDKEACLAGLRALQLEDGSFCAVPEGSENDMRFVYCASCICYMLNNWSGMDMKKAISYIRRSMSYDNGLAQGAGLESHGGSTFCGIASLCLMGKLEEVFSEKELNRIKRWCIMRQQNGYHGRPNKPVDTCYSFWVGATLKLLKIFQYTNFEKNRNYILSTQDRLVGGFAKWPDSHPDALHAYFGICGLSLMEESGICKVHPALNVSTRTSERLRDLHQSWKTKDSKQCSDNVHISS

Target: T1, GGTase-I (Rattus norvegicus, UniProt P53610+Q04631)
T1 construct: purchased JENA BIOSCIENCE
Test: In vitro GGTase-I enzyme assay (IC50, kinetics)
Assay type: biochemical
Conditions: for inhibition of GGTase-I: at concentrations without FTase inhibition
Description: The GGTase-I assay was carried out using RhoA as a substrate protein, GGTase-I (JENA Bioscience) and [3H]geranylgeranyl pyrophosphate. Incubation was for 30 min at 37° C. GGTase-II (or RabGGTase) assay was carried out using YPTI as a substrate protein, GGTase-II (Calbiochem, San Diego, Calif.) plus REP1 (Calbiochem) and [3H]geranylgeranyl pyrophosphate. Incubation was for 30 min at 37° C. FIGS. 20D-20F show the three dimensional structure of GGTase I (D), FTsse (E) and GGTase II (F) which can be obtained from X-ray diffraction studies of protein crystals.
GGTase-I and FTase activities were determined by following the incorporation of radiolabeled isoprenoid [^3H]-geranylgeranyl or [^3H]-farnesyl into substrate proteins. FTase or GGTase-I (50 nM) were used to initiate reactions containing 0.4 μM of [^3H]-FPP or 0.5 μM of [^3H]-GGPP and 2 μM of MBP-tagged substrates (K-Ras4B for FTase; RhoA for GGTase-I) in 20 μl of buffer {50 mM Tris-HCl (pH 7.5), 10 mM MgCl2, […] and 5 mM DTT}. Inhibitors were added at the indicated concentrations. The final DMSO concentration was 2.5% for all samples.
Reactions were carried out for 10 min at 30° C. The reaction mixture was spotted onto a filter paper, treated with 10% trichloroacetic acid (TCA) followed by ethanol and acetone washing. The filter was counted using a scintillation counter. Kinetic assays in which the GGPP concentration was varied employed fixed concentrations of GGTase-I and RhoA, and reactions were carried out for 5 min. Similarly, fixed concentrations of GGTase-I and GGPP were used when the amount of RhoA was varied.

[1] = Tables 3, 5, 7, read-out: In vitro (enzyme assay) IC50, GGTase I
[2] = Tables 8-15, no unit printed there (Table 7 head: μM unless otherwise specified), read-out: In vitro (GGTase I IC50)

Row | Structure (SMILES) | IC50 [1] [µM] | IC50 [2] [µM] | inhibition of GGTase-I
1 | COC(=O)[C@H](Cc1ccccc1)NC(=O)C1=C[C@@H](C(C)(C)C)N(S(=O)(=O)c2ccccc2C)[C@H]1c1ccc(Cl)cc1 [P61-A05] | > 50 | – | –
2 | CC(C)C[C@H](NC(=O)C1=CC[C@@H](c2cccc(Cl)c2)N(S(=O)(=O)c2ccc(Br)cc2)C1c1cccc(Br)c1)C(N)=O (some centres unmarked) [P61-C10] | > 50 | > 50 | –
3 | CC(C)(C)[C@@H]1C=C(C(=O)N[C@@H](Cc2ccccc2)C(N)=O)[C@H](c2ccc(Cl)c(Cl)c2)N1S(=O)(=O)c1c(Cl)cccc1Cl [P61-D10] | > 50 | > 50 | –
4 | COC(=O)[C@H](Cc1ccccc1)NC(=O)C1=C[C@@H](C(C)(C)C)N(S(=O)(=O)c2ccccc2C)[C@H]1c1ccc(Cl)cc1 [P61A5] | – | > 50 | –
5 | Cc1ccccc1S(=O)(=O)N1[C@@H](c2ccc(Cl)cc2)C(C(=O)O)=C[C@H]1C(C)(C)C [compound 22] | – | – | more than 90%
6 | Cc1ccccc1S(=O)(=O)N1C(c2ccc(Cl)cc2)CC=C(C(=O)O)[C@@H]1c1cccc(Cl)c1 (some centres unmarked) [compound 23] | – | – | more than 90%
